## Library screen at single concentrations

Chains of the proteins cited; added tags and fusions are not shown. Residues count along the entry.
UniProt Q4DA54, 1-478: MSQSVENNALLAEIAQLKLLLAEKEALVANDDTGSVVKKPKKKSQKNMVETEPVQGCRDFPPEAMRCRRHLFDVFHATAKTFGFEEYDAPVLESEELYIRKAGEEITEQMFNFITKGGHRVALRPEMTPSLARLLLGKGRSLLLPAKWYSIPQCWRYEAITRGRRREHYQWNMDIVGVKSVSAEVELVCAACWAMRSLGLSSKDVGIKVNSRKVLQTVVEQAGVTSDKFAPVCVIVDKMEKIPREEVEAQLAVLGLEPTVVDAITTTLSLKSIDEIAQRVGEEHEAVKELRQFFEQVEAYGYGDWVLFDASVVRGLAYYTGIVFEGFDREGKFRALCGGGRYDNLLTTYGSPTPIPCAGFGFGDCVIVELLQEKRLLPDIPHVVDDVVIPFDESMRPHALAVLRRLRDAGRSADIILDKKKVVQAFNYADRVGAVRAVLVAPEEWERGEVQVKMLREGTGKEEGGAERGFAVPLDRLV
UniProt A4I591, 1-473: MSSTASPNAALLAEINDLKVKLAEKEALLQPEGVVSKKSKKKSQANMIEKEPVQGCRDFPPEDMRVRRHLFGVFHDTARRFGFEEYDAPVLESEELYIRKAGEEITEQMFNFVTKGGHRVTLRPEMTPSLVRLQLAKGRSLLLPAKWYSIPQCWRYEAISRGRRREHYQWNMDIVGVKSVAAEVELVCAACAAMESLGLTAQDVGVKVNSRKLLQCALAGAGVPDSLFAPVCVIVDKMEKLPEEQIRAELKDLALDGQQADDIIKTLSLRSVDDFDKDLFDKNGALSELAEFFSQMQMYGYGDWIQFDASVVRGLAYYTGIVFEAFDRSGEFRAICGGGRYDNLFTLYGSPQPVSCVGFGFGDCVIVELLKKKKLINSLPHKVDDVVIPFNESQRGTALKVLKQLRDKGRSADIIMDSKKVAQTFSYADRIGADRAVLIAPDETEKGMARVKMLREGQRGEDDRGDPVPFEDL

Measurements from “University of Dundee, Small-Polar-MMV Screening Library” (2021), ChEMBL document CHEMBL3988442.

T. brucei: 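Whole-parasite assay of Trypanosoma brucei over 72 hours; the read-out is not stated. Tested at 30 µM. The record gives no direction; compounds that gave an IC50 in retests scored well above the rest, so higher reads as stronger inhibition. Values scatter widely below zero; nearly all retest evidence comes from the higher of the two concentrations used. Of about 64,000 compounds tested this way, about 940 (1.5%) reached 50% or more in at least one test.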
TcHisRS: 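Enzyme assay of histidyl-tRNA synthetase; the read-out is not stated. Target: Histidine-tRNA ligase, Trypanosoma cruzi CL Brener (UniProt Q4DA54). Compounds at 30 µM. Direction is inferred from retests: higher values go with stronger inhibition. Size under these conditions: about 69,000 compounds, about 31 of them at 50% or above in at least one test.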
LiHisRS: 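Enzyme assay of histidyl-tRNA synthetase; the read-out is not stated. Target: Histidine-tRNA ligase, Leishmania infantum (UniProt A4I591). Tested at 30 µM. Direction is inferred from retests: higher values go with stronger inhibition. The assay is labelled LdHisRS but filed under L. infantum. About 69,000 compounds were tested under these conditions; 0.6% (about 410) showed 50% or more at least once.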

Values are the deposited “Percent Effect”, in %.
The record does not define 0% and 100%; most values in the screen are far below 50% and negative numbers occur (in some assays of this library far below -100).
This is an unselected part of the compounds tested.
A dash means the value is not listed here; it may have been measured.

compound	T. brucei	TcHisRS	LiHisRS
CN(C)C(=O)C1CN(Cc2nccs2)CCN(S(C)(=O)=O)C1 (stereo not given)	2.184	4.255	15.62
NCC1Cc2cc(Cl)cc(-c3cncc(C(=O)N4CCCCC4)n3)c2O1 (stereo not given)	49.21	2.809	15.38
OC1(CNCCCN2CCc3ccccc32)CCNC1 (stereo not given)	99.09	-2.062	12.09
O=C(CN1CCCC1Cn1cncn1)NCCC1=CCCCC1 (stereo not given)	-	11.43	20.34
CC(=O)Nc1ccc(CNCc2cccnc2N(C)C)cc1	-8.257	0.9901	21.74
Cc1ccc(NC(=O)NCCc2cnn(C)c2)c(N(C)C)n1	-11.19	7.317	18.42
Cn1nnc(NCc2ccc(-c3ccc(Cl)cc3)o2)n1	1.663	-3.627	4.301
Cn1nnc2c1C(COCc1ccccn1)CN(C(=O)c1cccs1)C2 (stereo not given)	-	1.653	17.14
COCCN(C)C(=O)c1cc2c(s1)CCN2C(=O)C1CC1	-18.94	-1.111	-22.64
Nc1nc2nc(C3CCCN(C(=O)c4cnccn4)C3)ccc2s1 (stereo not given)	1.212	8.511	9.375
Cc1cc(C(=O)N2CCc3c(ncnc3N3CCOCC3)C2)[nH]n1	-35.25	7.831	21.98
COCC(=O)N1CC[C@H]2[C@H]1CCN2CC(C)C	-	2.151	-36.84
Cc1nc(C(=O)N2CCC(c3cc(CCO)n(C)n3)C2)co1 (stereo not given)	10.48	1.916	4.286
Cc1cc(CN(C)C(=O)c2ccc(N(C)C)nc2)no1	13	2.26	10.34
CCc1nnc2n1CCN(CCC(=O)Nc1cc(C)on1)C2	17.13	5.042	11.57
Cc1cccc(C(=O)N2CC(Cc3nccc4ccn(C)c34)C2)n1	7.604	5.993	20
COCCNC(=O)N1CCN(C(C)C(=O)NC(C)C)CC1 (stereo not given)	-22.01	2.463	19.74
O=C(O)C(F)(F)F.[H][C@@]12CCCO[C@]1([H])[C@@H](Oc1ccccn1)CN2C(=O)c1ccoc1C	-24.88	-	-
Cc1ccc(CN2CCOC3(COCCN(S(C)(=O)=O)C3)C2)o1.O=C(O)C(F)(F)F (stereo not given)	13	-	-
COc1cc(NC(=O)NC(C2CC2)C2CC2)ccc1N1CCOC1=O	-15.8	3.804	-2.667
Cc1cnc(N2CCC[C@@H]3CN(S(C)(=O)=O)C[C@@H]32)nc1	-	4.598	22
CNc1ncc(CN(C)C(=O)c2cccc(-n3cnnc3)c2)cn1	-18.59	-1.754	8.065
NC(=O)CN1CCC(c2noc3cc(F)ccc23)CC1	-22.26	3.955	-2.797
Cc1ccc(C(=O)N2CCC3(CC2)CC(N2CCOCC2)C3)cc1.O=C(O)C(F)(F)F	-5.892	-	-
CS(=O)(=O)Nc1cccc(CNC(=O)CCc2ccsc2)c1	-6.049	9.74	11.29
CCN(CCn1cccn1)Cc1nc(-c2cccc(C)c2)oc1C	-15.71	-1.058	12.12
N#Cc1ccc(OC2CCN(C(=O)c3ccccc3Cl)CC2)nc1	16.83	1.02	6.612
Cc1cnn(CC2CCN(CC(O)CN3CCC(C)CC3)CC2)c1 (stereo not given)	25.69	6.404	-9.211
CN(CC1CCCCO1)S(=O)(=O)c1cccc(C(=O)N2CCOCC2)c1 (stereo not given)	-21.97	3.96	14.29
Cn1nc(C#N)c2c1CN(C(=O)c1ccco1)CCC2	-160.5	1.093	-3.509
Cc1nccc(CNC(=O)Nc2cc(C(F)(F)F)c[nH]c2=O)n1	3.982	3.125	23.46
Cc1ccc(CNC(=O)c2oc3ccccc3c2CN(C)C)n1C	7.662	4.046	17.33
COc1ccc(CN2CCCn3cnc(COCC4CC4)c3C2)cc1	-	5.473	2.778
CC(C)NC(=O)c1cc(Br)cc(S(=O)(=O)N2CCOCC2)c1F	-60.45	-32.47	22.86
Cn1cc(CNCCC(=O)NCc2ccccc2)c(-c2cccnc2)n1	1.758	0	5.479
CC(C)c1nccn1C(C)C(=O)N1CCN(S(C)(=O)=O)CC1 (stereo not given)	-57.17	4.217	13.19
CCS(=O)(=O)c1ccc2c(c1)OCCO2	-19.41	3.867	7.042
c1cncc(CN2CCC(c3ccc4c(c3)OCO4)CC2)c1	-	6.818	-10.14
CSC(C)C(=O)NS(=O)(=O)c1ccc(F)c(C(F)(F)F)c1 (stereo not given)	1.202	5.128	18.37
CC(C(=O)NCC1CCN(c2ccncc2)CC1)S(C)(=O)=O (stereo not given)	5.1	3.727	5
CN(C)C(=O)c1cc(-c2ccncc2)[nH]n1	25.9	4.545	9.901
CS(=O)(=O)N1CC[C@]2(O)CCN(CCCC(=O)c3ccccc3)C[C@@H]2C1	-	8	16.33
COCCNC(=O)Nc1ccc(CN2CCOC2=O)cc1	-21.73	1.058	15.15
COCCN1CCCn2c(nc(Cn3cncn3)cc2=O)C1.O=C(O)C(F)(F)F	64.46	-	-
COCCC(=O)N1CCC(C(=O)c2cc(C)cnc2N)CC1	7.851	2.996	0
Cc1nc(CN2CCN(S(=O)(=O)N3CCOCC3)CC2)oc1C	-10.2	4.972	4.145
COc1cccc(CN(C)C(=O)c2csc(-c3nnc[nH]3)n2)c1	-9.03	5.051	20.21
CC1(c2[nH]ncc2C(N)=O)CCN(S(=O)(=O)c2ccccc2)CC1	1.836	1.149	5.755
O=C(c1cnc(-c2ncccn2)s1)N1CCCC(n2cccn2)C1 (stereo not given)	9.401	5.444	12.28
Cc1noc(C2CCC3(CCN(C(=O)c4ccnnc4)CC3)O2)n1 (stereo not given)	-62.63	7.477	12.5
CCOC(=O)CN1CCC(C(=O)c2cc(F)ccc2F)CC1	-9.579	-3.422	5.6
[H][C@]12CN(Cc3ccoc3)CCN1C[C@@H](c1ccccc1)[C@@H]2C(=O)NC	-20.57	-	-
c1cncc(COCC2CC[C@H]3[C@H](CCN3CC3CCOCC3)O2)c1 (stereo not given in full)	-	1.02	-3
CC(C)c1nc(C2CCCN2C(=O)c2ccc(N(C)C)nn2)no1 (stereo not given)	-24.63	-0.3831	15.38
COc1ccc2oc(C(C)NC(=O)NC3CCN(C)CC3)c(C)c2c1 (stereo not given)	4.537	3.614	20.51
Cc1cc(C)c(CNC(=O)N(C)Cc2cccc(F)c2)c(=O)[nH]1	-0.1893	5.78	7.895